Article PMC5819684
Results are given in words; binding and its absence hold for the method and conditions named. Binding seen in cells or lysates may run through a third protein. Tags and fused reporters may be left off the sequences shown.

Sequences of proteins named here, by UniProt entry; tags and fusion partners are left off.
UniProt Q9BXW9: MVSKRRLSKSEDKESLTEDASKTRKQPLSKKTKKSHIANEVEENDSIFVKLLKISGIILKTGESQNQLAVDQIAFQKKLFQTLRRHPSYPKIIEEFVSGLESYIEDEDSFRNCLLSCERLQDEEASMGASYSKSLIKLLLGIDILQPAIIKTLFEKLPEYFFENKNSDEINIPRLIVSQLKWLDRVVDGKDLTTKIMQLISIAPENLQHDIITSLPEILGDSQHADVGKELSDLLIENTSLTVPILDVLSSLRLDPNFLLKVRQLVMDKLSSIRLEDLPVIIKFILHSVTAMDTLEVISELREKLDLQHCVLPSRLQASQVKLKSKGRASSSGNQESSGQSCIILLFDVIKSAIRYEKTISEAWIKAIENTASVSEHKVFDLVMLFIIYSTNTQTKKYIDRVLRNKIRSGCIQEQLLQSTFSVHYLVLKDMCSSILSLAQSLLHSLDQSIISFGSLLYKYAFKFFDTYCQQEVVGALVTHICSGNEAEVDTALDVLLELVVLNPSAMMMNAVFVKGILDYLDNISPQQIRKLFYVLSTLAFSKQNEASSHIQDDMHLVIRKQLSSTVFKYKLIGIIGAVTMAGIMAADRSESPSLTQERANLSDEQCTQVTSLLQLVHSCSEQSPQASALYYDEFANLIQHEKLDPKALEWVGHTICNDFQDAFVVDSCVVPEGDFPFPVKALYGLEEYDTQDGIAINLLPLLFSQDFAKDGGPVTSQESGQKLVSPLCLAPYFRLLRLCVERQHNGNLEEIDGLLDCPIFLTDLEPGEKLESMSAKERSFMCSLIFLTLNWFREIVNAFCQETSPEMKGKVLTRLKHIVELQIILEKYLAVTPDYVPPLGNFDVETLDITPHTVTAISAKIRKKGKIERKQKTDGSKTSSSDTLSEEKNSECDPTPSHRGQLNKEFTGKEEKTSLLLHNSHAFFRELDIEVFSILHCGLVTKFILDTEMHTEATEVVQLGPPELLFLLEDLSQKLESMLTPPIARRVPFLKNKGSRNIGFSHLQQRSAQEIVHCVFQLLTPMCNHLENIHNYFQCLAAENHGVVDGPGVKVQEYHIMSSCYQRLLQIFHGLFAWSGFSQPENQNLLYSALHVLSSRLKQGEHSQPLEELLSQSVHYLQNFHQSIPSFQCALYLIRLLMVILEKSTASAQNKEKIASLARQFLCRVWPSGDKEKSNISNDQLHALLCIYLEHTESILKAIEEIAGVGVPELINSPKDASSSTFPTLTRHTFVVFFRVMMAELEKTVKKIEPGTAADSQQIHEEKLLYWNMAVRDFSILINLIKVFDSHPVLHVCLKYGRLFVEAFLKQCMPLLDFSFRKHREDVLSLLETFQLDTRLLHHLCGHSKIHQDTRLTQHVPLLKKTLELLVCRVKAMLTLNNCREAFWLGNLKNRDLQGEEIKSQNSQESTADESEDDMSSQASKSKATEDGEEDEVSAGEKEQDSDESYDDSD

Molecular target: T1, HA-HES1 (Hairy Enhancer of Split 1) (UniProt Q14469)
T1 sequence: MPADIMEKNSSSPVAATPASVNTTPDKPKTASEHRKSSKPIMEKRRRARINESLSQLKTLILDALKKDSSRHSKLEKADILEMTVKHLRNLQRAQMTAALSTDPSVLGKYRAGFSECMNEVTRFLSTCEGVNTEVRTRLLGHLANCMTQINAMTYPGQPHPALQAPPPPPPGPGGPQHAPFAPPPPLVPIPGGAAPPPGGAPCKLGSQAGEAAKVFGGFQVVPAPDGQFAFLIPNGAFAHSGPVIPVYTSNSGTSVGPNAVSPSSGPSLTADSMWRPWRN
Experiment: co-IP; anti-HA immunoprecipitation from whole cell lysates of 293T cells transfected with HA-HES1 and Myc-tagged ubiquitin K48R (pCW8); 2 µg antibody overnight at 4 °C, protein-G magnetic beads; blotted for HES1 and FANCD2

binding: no binding
Substance: FANCD2 (Fanconi anemia D2) (from UniProt Q9BXW9 1-1451)
